Source: PMC10776994, “The SDS22:PP1:I3 complex: SDS22 binding to PP1 loosens the active site metal to prime metal exchange” (The Journal of Biological Chemistry, 2023)
These are yes or no findings as the source states them, for the method shown. Some results given as binding are weak or reduced against the parent protein; the word gives no strength.

Chains of the proteins cited; added tags and fusions are not shown. Residues count along the entry.
UniProt P62136, residues 7-300: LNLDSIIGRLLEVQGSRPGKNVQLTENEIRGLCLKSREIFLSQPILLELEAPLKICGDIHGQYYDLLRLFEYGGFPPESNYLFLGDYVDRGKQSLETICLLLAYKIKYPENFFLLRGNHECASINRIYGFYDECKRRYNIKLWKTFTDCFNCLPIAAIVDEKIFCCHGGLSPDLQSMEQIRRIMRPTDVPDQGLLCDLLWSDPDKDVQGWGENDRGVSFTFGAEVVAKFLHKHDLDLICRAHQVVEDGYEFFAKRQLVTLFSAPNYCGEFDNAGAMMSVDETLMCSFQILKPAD

Biological target: PP1α_(7-300) (UniProt P62136)
Test: crystal structure; SDS22_(56-360):PP1α_(7-300):I3_(27-68) (SPI) co-expressed in Expi293F; 3.2 Å, molecular replacement with PDB 6OBN; both purified

B1: SDS22_(56-360) (domain or fragment, UniProt Q15435 56-360)
chain: EEDPEEEHELPVDMETINLDRDAEDVDLNHYRIGKIEGFEVLKKVKTLCLRQNLIKCIENLEELQSLRELDLYDNQIKKIENLEALTELEILDISFNLLRNIEGVDKLTRLKKLFLVNNKISKIENLSNLHQLQMLELGSNRIRAIENIDTLTNLESLFLGKNKITKLQNLDALTNLTVLSMQSNRLTKIEGLQNLVNLRELYLSHNGIEVIEGLENNNKLTMLDIASNRIKKIENISHLTELQEFWMNDNLLESWSDLDELKGARSLETVYLERNPLQKDPQYRRKVMLALPSVRQIDATFVRF
- binding: binds
